PubChem BioAssay AID1259266, Sanger Institute, 2017
The whole screen tested 794 reagents; this is a random part of them. In the full data, 16 (2%) got an active call. 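Calls reflect knock-down alone, not drug synergy; viability seems capped at 1 and z-scores at 0.585.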 Not stated in the record: the amount of reagent, the time to read-out.

Purpose: 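Find knock-downs that kill LS123 cells or act with anchor drugs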 (primary screen)
Cells: LS123 human colorectal cancer cells
Knock-down reagent: siRNA pool against human genes
Treatment: anchor drugs BYL719 (1 µM), cetuximab (5 µg/ml) or trametinib (10 nM), each chosen to barely slow growth alone; DMSO vehicle as the drug-free arm
Measured: 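Replicate-averaged viability scaled to non-targeting pools, robust z-score for siRNA alone, and a synergy score per anchor drug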
Scale: robust z-score, knock-down alone: higher = more cells surviving after knock-down; viability, knock-down alone: higher = more viable cells; synergy score with trametinib and synergy score with BYL719 and synergy score with cetuximab: higher = stronger synthetic lethality with drug
Rule for the call: 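Essential when the robust z-score of the knock-down alone is below -3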
Calls: active = essential (knock-down alone cuts viability); inactive = no change

Gene | robust z-score, knock-down alone | viability, knock-down alone (fraction of control) | synergy score with trametinib | synergy score with BYL719 | synergy score with cetuximab | outcome
BMPR1A (bone morphogenetic protein receptor type 1A) | 0.275 | 0.982 | -0.199 | -0.175 | -0.0304 | inactive
MET (MET proto-oncogene, receptor tyrosine kinase) | 0.585 | 1 | -0.184 | -0.0764 | -0.0122 | inactive
ATRX (ATRX chromatin remodeler) | 0.585 | 1 | -0.159 | -0.159 | -0.0122 | inactive
MAST2 (microtubule associated serine/threonine kinase 2) | 0.06 | 0.969 | -0.0669 | 0.0926 | -0.0042 | inactive
LMTK3 (lemur tail kinase 3) | 0.585 | 1 | 0.0351 | 0.0397 | 0.0102 | inactive
PRKAG1 (protein kinase AMP-activated non-catalytic subunit gamma 1) | 0.585 | 1 | 0.0339 | 0.0089 | 0.0726 | inactive
MPP2 (MAGUK p55 scaffold protein 2) | 0.585 | 1 | -0.0251 | -0.159 | -0.0122 | inactive
CERT1 (ceramide transporter 1) | -0.181 | 0.955 | -0.066 | -0.193 | -0.0571 | inactive
CHD9 (chromodomain helicase DNA binding protein 9) | -1.58 | 0.871 | -0.127 | -0.202 | -0.0833 | inactive
MAP3K3 (mitogen-activated protein kinase kinase kinase 3) | -0.657 | 0.926 | 0.0357 | -0.0414 | 0.109 | inactive
PACSIN1 (protein kinase C and casein kinase substrate in neurons 1) | 0.0487 | 0.968 | -0.0634 | -0.0861 | 0.0137 | inactive
NR4A2 (nuclear receptor subfamily 4 group A member 2) | -1.4 | 0.882 | 0.0503 | 0.00275 | 0.00784 | inactive
PRKAG2 (protein kinase AMP-activated non-catalytic subunit gamma 2) | 0.585 | 1 | -0.132 | -0.159 | -0.0122 | inactive
ITSN1 (intersectin 1) | 0.17 | 0.975 | -0.0512 | -0.146 | 0.000608 | inactive
ETNK1 (ethanolamine kinase 1) | 0.351 | 0.986 | -0.0943 | -0.106 | -0.0259 | inactive
PRKCG (protein kinase C gamma) | 0.585 | 1 | -0.137 | -0.159 | -0.0122 | inactive
PGK1 (phosphoglycerate kinase 1) | 0.445 | 0.992 | -0.0818 | -0.0882 | -0.0204 | inactive
TTBK1 (tau tubulin kinase 1) | -1.02 | 0.905 | -0.058 | -0.0148 | -0.0546 | inactive
PASK (PAS domain containing serine/threonine kinase) | 0.585 | 1 | -0.0324 | -0.0345 | 0.0482 | inactive
PANK4 (pantothenate kinase 4 (inactive)) | -2.49 | 0.818 | -0.0631 | 0.0267 | 0.0634 | inactive
TAOK2 (TAO kinase 2) | 0.585 | 1 | -0.133 | -0.136 | -0.0122 | inactive
RIOK1 (RIO kinase 1) | 0.585 | 1 | -0.0685 | -0.0477 | 0.0799 | inactive
MAPK1 (mitogen-activated protein kinase 1) | -0.585 | 0.93 | -0.014 | -0.0677 | 0.0571 | inactive
ITK (IL2 inducible T cell kinase) | 0.585 | 1 | -0.0507 | -0.159 | -0.0122 | inactive
MAP3K21 (mitogen-activated protein kinase kinase kinase 21) | 0.585 | 1 | -0.186 | -0.0723 | -0.0122 | inactive
IPMK (inositol polyphosphate multikinase) | 0.247 | 0.98 | -0.112 | -0.0519 | -0.0321 | inactive
DYRK2 (dual specificity tyrosine phosphorylation regulated kinase 2) | 0.585 | 1 | -0.0785 | -0.113 | -0.0122 | inactive
MAP3K1 (mitogen-activated protein kinase kinase kinase 1) | 0.224 | 0.979 | -0.196 | -0.146 | -0.0334 | inactive
ATP23 | 0.585 | 1 | 0.0299 | -0.0144 | 0.0242 | inactive
CERK (ceramide kinase) | 0.585 | 1 | -0.0086 | -0.093 | -0.0122 | inactive

Limited to “synergy score with BYL719”, for 2 of the entries above:
PASK (PAS domain containing serine/threonine kinase) = -0.0345
PANK4 (pantothenate kinase 4 (inactive)) = 0.0267

The listing continues.
Gene | robust z-score, knock-down alone | viability, knock-down alone (fraction of control) | synergy score with trametinib | synergy score with BYL719 | synergy score with cetuximab | outcome
PKN2 (protein kinase N2) | -2.56 | 0.813 | -0.0684 | -0.193 | -0.135 | inactive
DGKK (diacylglycerol kinase kappa) | 0.585 | 1 | -0.0426 | -0.0381 | -0.0122 | inactive
RPS6KB1 (ribosomal protein S6 kinase B1) | 0.585 | 1 | -0.0403 | -0.0966 | -0.0122 | inactive
ACO1 (aconitase 1) | -1.47 | 0.878 | 0.00558 | -0.0146 | -0.0137 | inactive
HK2 (hexokinase 2) | -1.81 | 0.858 | -0.101 | -0.121 | 0.00613 | inactive
APC (APC regulator of Wnt signaling pathway) | -1.35 | 0.885 | 0.0118 | -0.199 | -0.107 | inactive
DYRK1B | -0.272 | 0.949 | -0.0172 | -0.183 | -0.0625 | inactive
LMTK2 (lemur tail kinase 2) | 0.0859 | 0.97 | -0.0817 | -0.0872 | -0.0415 | inactive
PHKA1 (phosphorylase kinase regulatory subunit alpha 1) | 0.585 | 1 | -0.0708 | -0.0965 | -0.0122 | inactive
MAP2K5 (mitogen-activated protein kinase kinase 5) | 0.585 | 1 | -0.024 | -0.0621 | -0.0122 | inactive
RPS6KA4 (ribosomal protein S6 kinase A4) | -1.03 | 0.904 | 0.0343 | -0.0084 | 0.0791 | inactive
MAPK11 (mitogen-activated protein kinase 11) | 0.564 | 0.999 | -0.0565 | -0.0511 | 0.0252 | inactive
NME6 (NME/NM23 nucleoside diphosphate kinase 6) | -1.74 | 0.862 | -0.108 | -0.0712 | -0.0471 | inactive
PEAK1 (pseudopodium enriched atypical kinase 1) | -0.82 | 0.917 | -0.0739 | -0.142 | -0.0568 | inactive
CSF1R (colony stimulating factor 1 receptor) | -0.774 | 0.919 | 0.0318 | -0.0497 | -0.0845 | inactive
DGKQ (diacylglycerol kinase theta) | -0.681 | 0.925 | -0.0413 | -0.028 | 0.105 | inactive
CDC42BPB (CDC42 binding protein kinase beta) | 0.585 | 1 | 0.0031 | -0.0406 | -0.0122 | inactive
BUB1B (BUB1 mitotic checkpoint serine/threonine kinase B) | -1.42 | 0.881 | -0.0566 | -0.128 | 0.035 | inactive
